Results are given in words; binding and its absence hold for the method and conditions named. Binding seen in cells or lysates may run through a third protein. These calls come from enrichment with a bait or labelling near it, and not all partners need be listed.
B1: AP-3 complex subunit delta-1 (protein, UniProt O14617 1-1153)
chain: MALKMVKGSIDRMFDKNLQDLVRGIRNHKEDEAKYISQCIDEIKQELKQDNIAVKANAVCKLTYLQMLGYDISWAAFNIIEVMSASKFTFKRIGYLAASQSFHEGTDVIMLTTNQIRKDLSSPSQYDTGVALTGLSCFVTPDLARDLANDIMTLMSHTKPYIRKKAVLIMYKVFLKYPESLRPAFPRLKEKLEDPDPGVQSAAVNVICELARRNPKNYLSLAPLFFKLMTSSTNNWVLIKIIKLFGALTPLEPRLGKKLIEPLTNLIHSTSAMSLLYECVNTVIAVLISLSSGMPNHSASIQLCVQKLRILIEDSDQNLKYLGLLAMSKILKTHPKSVQSHKDLILQCLDDKDESIRLRALDLLYGMVSKKNLMEIVKKLMTHVDKAEGTTYRDELLTKIIDICSQSNYQYITNFEWYISILVELTRLEGTRHGHLIAAQMLDVAIRVKAIRKFAVSQMSALLDSAHLLASSTQRNGICEVLYAAAWICGEFSEHLQEPHHTLEAMLRPRVTTLPGHIQAVYVQNVVKLYASILQQKEQAGEAEGAQAVTQLMVDRLPQFVQSADLEVQERASCILQLVKHIQKLQAKDVPVAEEVSALFAGELNPVAPKAQKKVPVPEGLDLDAWINEPLSDSESEDERPRAVFHEEEQRRPKHRPSEADEEELARRREARKQEQANNPFYIKSSPSPQKRYQDTPGVEHIPVVQIDLSVPLKVPGLPMSDQYVKLEEERRHRQKLEKDKRRKKRKEKEKKGKRRHSSLPTESDEDIAPAQQVDIVTEEMPENALPSDEDDKDPNDPYRALDIDLDKPLADSEKLPIQKHRNTETSKSPEKDVPMVEKKSKKPKKKEKKHKEKERDKEKKKEKEKKKSPKPKKKKHRKEKEERTKGKKKSKKQPPGSEEAAGEPVQNGAPEEEQLPPESSYSLLAENSYVKMTCDIRGSLQEDSQVTVAIVLENRSSSILKGMELSVLDSLNARMARPQGSSVHDGVPVPFQLPPGVSNEAQYVFTIQSIVMAQKLKGTLSFIAKNDEGATHEKLDFRLHFSCSSYLITTPCYSDAFAKLLESGDLSMSSIKVDGIRMSFQNLLAKICFHHHFSVVERVDSCASMYSRSIQGHHVCLLVKKGENSVSVDGKCSDSTLLSNLLEEMKATLAKC
B2: CDP-diacylglycerol–inositol 3-phosphatidyltransferase (protein, UniProt O14735 1-213)
chain: MPDENIFLFVPNLIGYARIVFAIISFYFMPCCPLTASSFYLLSGLLDAFDGHAARALNQGTRFGAMLDMLTDRCSTMCLLVNLALLYPGATLFFQISMSLDVASHWLHLHSSVVRGSESHKMIDLSGNPVLRIYYTSRPALFTLCAGNELFYCLLYLFHFSEGPLVGSVGLFRMGLWVTAPIALLKSLISVIHLITAARNMAALDAADRAKKK
B3: Cleavage and polyadenylation specificity factor subunit 1 (protein, UniProt Q10570 1-1443)
chain: MYAVYKQAHPPTGLEFSMYCNFFNNSERNLVVAGTSQLYVYRLNRDAEALTKNDRSTEGKAHREKLELAASFSFFGNVMSMASVQLAGAKRDALLLSFKDAKLSVVEYDPGTHDLKTLSLHYFEEPELRDGFVQNVHTPRVRVDPDGRCAAMLVYGTRLVVLPFRRESLAEEHEGLVGEGQRSSFLPSYIIDVRALDEKLLNIIDLQFLHGYYEPTLLILFEPNQTWPGRVAVRQDTCSIVAISLNITQKVHPVIWSLTSLPFDCTQALAVPKPIGGVVVFAVNSLLYLNQSVPPYGVALNSLTTGTTAFPLRTQEGVRITLDCAQATFISYDKMVISLKGGEIYVLTLITDGMRSVRAFHFDKAAASVLTTSMVTMEPGYLFLGSRLGNSLLLKYTEKLQEPPASAVREAADKEEPPSKKKRVDATAGWSAAGKSVPQDEVDEIEVYGSEAQSGTQLATYSFEVCDSILNIGPCANAAVGEPAFLSEEFQNSPEPDLEIVVCSGHGKNGALSVLQKSIRPQVVTTFELPGCYDMWTVIAPVRKEEEDNPKGEGTEQEPSTTPEADDDGRRHGFLILSREDSTMILQTGQEIMELDTSGFATQGPTVFAGNIGDNRYIVQVSPLGIRLLEGVNQLHFIPVDLGAPIVQCAVADPYVVIMSAEGHVTMFLLKSDSYGGRHHRLALHKPPLHHQSKVITLCLYRDLSGMFTTESRLGGARDELGGRSGPEAEGLGSETSPTVDDEEEMLYGDSGSLFSPSKEEARRSSQPPADRDPAPFRAEPTHWCLLVRENGTMEIYQLPDWRLVFLVKNFPVGQRVLVDSSFGQPTTQGEARREEATRQGELPLVKEVLLVALGSRQSRPYLLVHVDQELLIYEAFPHDSQLGQGNLKVRFKKVPHNINFREKKPKPSKKKAEGGGAEEGAGARGRVARFRYFEDIYGYSGVFICGPSPHWLLVTGRGALRLHPMAIDGPVDSFAPFHNVNCPRGFLYFNRQGELRISVLPAYLSYDAPWPVRKIPLRCTAHYVAYHVESKVYAVATSTNTPCARIPRMTGEEKEFETIERDERYIHPQQEAFSIQLISPVSWEAIPNARIELQEWEHVTCMKTVSLRSEETVSGLKGYVAAGTCLMQGEEVTCRGRILIMDVIEVVPEPGQPLTKNKFKVLYEKEQKGPVTALCHCNGHLVSAIGQKIFLWSLRASELTGMAFIDTQLYIHQMISVKNFILAADVMKSISLLRYQEESKTLSLVSRDAKPLEVYSVDFMVDNAQLGFLVSDRDRNLMVYMYLPEAKESFGGMRLLRRADFHVGAHVNTFWRTPCRGATEGLSKKSVVWENKHITWFATLDGGIGLLLPMQEKTYRRLLMLQNALTTMLPHHAGLNPRAFRMLHVDRRTLQNAVRNVLDGELLNRYLYLSTMERSELAKKIGTTPDIILDDLLETDRVTAHF
B4: Cleavage and polyadenylation specificity factor subunit 7 (protein, UniProt Q8N684 1-471)
chain: MSEGVDLIDIYADEEFNQDPEFNNTDQIDLYDDVLTATSQPSDDRSSSTEPPPPVRQEPSPKPNNKTPAILYTYSGLRNRRAAVYVGSFSWWTTDQQLIQVIRSIGVYDVVELKFAENRANGQSKGYAEVVVASENSVHKLLELLPGKVLNGEKVDVRPATRQNLSQFEAQARKRECVRVPRGGIPPRAHSRDSSDSADGRATPSENLVPSSARVDKPPSVLPYFNRPPSALPLMGLPPPPIPPPPPLSSSFGVPPPPPGIHYQHLMPPPPRLPPHLAVPPPGAIPPALHLNPAFFPPPNATVGPPPDTYMKASAPYNHHGSRDSGPPPSTVSEAEFEDIMKRNRAISSSAISKAVSGASAGDYSDAIETLLTAIAVIKQSRVANDERCRVLISSLKDCLHGIEAKSYSVGASGSSSRKRHRSRERSPSRSRESSRRHRDLLHNEDRHDDYFQERNREHERHRDRERDRHH
B5: Delta-1-pyrroline-5-carboxylate synthetase (protein, UniProt P54886 1-795)
chain: MLSQVYRCGFQPFNQHLLPWVKCTTVFRSHCIQPSVIRHVRSWSNIPFITVPLSRTHGKSFAHRSELKHAKRIVVKLGSAVVTRGDECGLALGRLASIVEQVSVLQNQGREMMLVTSGAVAFGKQRLRHEILLSQSVRQALHSGQNQLKEMAIPVLEARACAAAGQSGLMALYEAMFTQYSICAAQILVTNLDFHDEQKRRNLNGTLHELLRMNIVPIVNTNDAVVPPAEPNSDLQGVNVISVKDNDSLAARLAVEMKTDLLIVLSDVEGLFDSPPGSDDAKLIDIFYPGDQQSVTFGTKSRVGMGGMEAKVKAALWALQGGTSVVIANGTHPKVSGHVITDIVEGKKVGTFFSEVKPAGPTVEQQGEMARSGGRMLATLEPEQRAEIIHHLADLLTDQRDEILLANKKDLEEAEGRLAAPLLKRLSLSTSKLNSLAIGLRQIAASSQDSVGRVLRRTRIAKNLELEQVTVPIGVLLVIFESRPDCLPQVAALAIASGNGLLLKGGKEAAHSNRILHLLTQEALSIHGVKEAVQLVNTREEVEDLCRLDKMIDLIIPRGSSQLVRDIQKAAKGIPVMGHSEGICHMYVDSEASVDKVTRLVRDSKCEYPAACNALETLLIHRDLLRTPLFDQIIDMLRVEQVKIHAGPKFASYLTFSPSEVKSLRTEYGDLELCIEVVDNVQDAIDHIHKYGSSHTDVIVTEDENTAEFFLQHVDSACVFWNASTRFSDGYRFGLGAEVGISTSRIHARGPVGLEGLLTTKWLLRGKDHVVSDFSEHGSLKYLHENLPIPQRNTN

Amino acid sequences for entries named in this document (tags omitted). Residues count along the entry.
UniProt O95793, residues 82-577: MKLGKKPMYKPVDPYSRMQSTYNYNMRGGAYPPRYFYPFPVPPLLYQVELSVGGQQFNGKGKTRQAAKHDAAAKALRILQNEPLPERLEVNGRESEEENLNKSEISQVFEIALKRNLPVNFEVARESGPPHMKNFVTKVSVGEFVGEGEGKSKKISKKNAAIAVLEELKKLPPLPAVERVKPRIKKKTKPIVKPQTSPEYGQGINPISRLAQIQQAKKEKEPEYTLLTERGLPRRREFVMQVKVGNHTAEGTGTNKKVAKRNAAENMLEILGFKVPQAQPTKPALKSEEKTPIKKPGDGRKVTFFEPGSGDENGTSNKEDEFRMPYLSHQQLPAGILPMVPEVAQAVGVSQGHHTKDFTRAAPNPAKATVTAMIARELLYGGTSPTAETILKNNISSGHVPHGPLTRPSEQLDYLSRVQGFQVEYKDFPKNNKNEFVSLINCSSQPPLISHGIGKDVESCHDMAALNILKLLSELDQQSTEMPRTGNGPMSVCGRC

What follows are binders tested against Staufen1-TAP (UniProt O95793) (assay: affinity purification with mass spectrometry; tandem affinity purification of Staufen1-TAP from lysates of stable 293T cells, mock or pNL4-3 transfected; eluates on SDS-PAGE, 23 gel slices, in gel trypsin digestion, LC-MS/MS; FDR less than 1%).

Binder	binding
B1	binds
B2	binds
B3	binds
B4	binds
B5	binds
